According to US20220267365A1, “NOVEL PHOSPHATE ESTER COMPOUND HAVING PYRROLOPYRIMIDINE SKELETON OR PHARMACEUTICALLY ACCEPTABLE SALT THEREOF” (TAIHO PHARMACEUTICAL CO., LTD., priority 2019, published 2022):
Some entries share one result that the patent states for a list of compounds.

Test: Test Example 2: presence of prodrug in mouse and absorbency, caudal vein administration, plasma AUC
Format: in vivo, mice (Balb/cA, male)
Settings: caudal vein administration of disodium salts
Procedure: The dosage amounts of a disodium salt of the compound of Example 1, a disodium salt of the compound of Example 2, a disodium salt of the compound of Example 3, a disodium salt of the compound of Example 4 and a disodium salt of the compound of Example 5 were set to be 26 mg/5 mL/kg, 12 mg/5 mL/kg, 12 mg/5 mL/kg, 12 mg/5 mL/kg, and 11 mg/5 mL/kg, respectively. Solutions for administration were prepared by dissolving the compounds in physiological saline so as to satisfy the above dosage amounts, respectively. Note that solutions for administration of disodium salts of the compounds of Examples 1 to 4 were prepared by adding 2 molar equivalents of sodium hydroxide.
Mice (Balb/cA, male) not fasted were each immobilized on a specific fixed table, sterilized with ethanol for disinfection. Each of the solutions prepared above was administered through the caudal vein by use of a syringe and a needle. […]
The blood sampled were immediately centrifuged (13000 rpm, 2 minutes, 4° C.) to prepare the plasma samples. After proteins were removed from the plasma samples, the concentrations of the test compound in the plasma samples were measured by LC/MS/MS.
The value of AUC was calculated using analysis software such as Phoenix (registered trademark), WinNonlin (registered trademark). […]

For `Nc1ncnc2c1c(I)cn2[C@@H]1O[C@H](COP(O)(O)=S)[C@@H](O)[C@@H]1F` [Example 3, O-(((2R,3R,4S,5R)-5-(4-amino-5-iodo-7H-pyrrolo[2,3-d]pyrimidin-7-yl)-4-fluoro-3-hydroxytetrahydrofuran-2-yl)methyl) O,O-dihydrogen phosphorothioate], the “presence of prodrug in mouse (conversion into active compound)” value was “prodrugs of the compound (I form) of Comparative Example 2”.
